Experimental data as given in patent US5523314A, “Compounds useful as hypoglycemic agents and for treating Alzheimer's disease” (priority 1994, dated 1996).
Read-outs that look alike come from different tables or passages of the source.

Chains of the proteins cited; added tags and fusions are not shown. Residues count along the entry.
UniProt P07339, 65-161 limits assumed: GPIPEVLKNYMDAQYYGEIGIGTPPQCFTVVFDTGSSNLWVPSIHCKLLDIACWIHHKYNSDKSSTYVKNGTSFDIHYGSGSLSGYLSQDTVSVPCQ
UniProt P07339, 169-412 limits assumed: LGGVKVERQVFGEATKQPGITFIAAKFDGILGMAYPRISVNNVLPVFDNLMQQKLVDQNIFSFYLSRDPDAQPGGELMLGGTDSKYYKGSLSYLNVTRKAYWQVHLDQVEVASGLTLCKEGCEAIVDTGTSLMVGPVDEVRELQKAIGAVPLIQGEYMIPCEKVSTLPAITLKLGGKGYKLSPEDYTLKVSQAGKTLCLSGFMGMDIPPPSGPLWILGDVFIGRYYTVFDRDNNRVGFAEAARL

Legend:
[1] = system: blood glucose level; assay: Hypoglycemic activity in obese diabetic mice (Table 1); type: in vivo, male viable yellow obese-diabetic mice; conditions: Mus musculus, ip
Experimental: The hypoglycemic activity of the compounds of the present invention was determined by testing the efficacy of the compounds in vivo in male viable yellow obese-diabetic mice. The test procedure is described in detail below.
Test formulations were prepared by dissolving the test compound in a saline solution containing 2% Emulphor (a polyoxyethylated vegetable oil surfactant from GAP Corp.) to provide the dose level desired. Each test formulation was administered to six viable yellow obese-diabetic mice intraperitoneally at the beginning of the experiment. Blood glucose levels were determined immediately before the first dose and at 2 and 4 hours thereafter using glucose oxidase. A mean was taken of the 6 values obtained before the first dose and at the 2 and 4 hour intervals. In Table 1, Column 1 provides the example number of the test compound, Column 2 provides the dose level of compound tested, and Columns 3 and 4 provide a measurement of the test animal's blood glucose level 2 and 4 hours after test compound administration, respectively, as a percentage of the test animal' s pre-administration blood glucose level.

[2] = biological target: T1, Human liver cathepsin D (Homo sapiens, UniProt P07339); assay: Cathepsin D inhibition, fluorometric assay (Tables 5 and 6); type: biochemical; conditions: read-out: % Inhibition of Cathepsin D
T1 construct: purchased Athens Research and Technology, Athens, Ga; host or cells: human liver
Experimental: Human liver cathepsin D (Athens Research and Technology, Athens, Ga.) was diluted in assay buffer, 200 mM NaOAc, pH 4.5, 150 mM NaCl to 500 ng/mL and then 100 μL of this cathepsin D solution was added to each well of a 96 well plate with the exception of control wells which received just 100 μL of assay buffer. […] Blank and enzyme control wells each received 5 μL of the DMSO vehicle.
After incubation at 37° C. for 30 minutes, cathepsin D activity was terminated by the addition of 100 μL per well of 400 mU/mL microsomal leucine aminopeptidase (EC 3.4.11.2, Sigma, St. Louis, Mo.) in 1M Tris-HCl, pH 8.0.
Following a two hour incubation at 37° C., to allow the aminopeptidase to release the fluorophore, 7-amido-4-methylcoumarin (AMC) from the products of cathepsin D cleavage, the plates were again analyzed in the fluorometer. In order to check for potential false positives, i.e., inhibitors of microsomal leucine aminopeptidase, residual aminopeptidase activity was monitored directly in each well by the addition of 20 μL/well of 2.5 mM Leu-pNA (Bachem Biosciences, Philadelphia, Pa.) in 10% DMSO.

[3] = 2 h, read-out: Percent of Initial Blood Glucose Level After 2 hrs.
[4] = 4 h, read-out: Percent of Initial Blood Glucose Level After 4 hrs.

## COc1ccc(C=C2SC(=S)NC2=O)cc1OC [Example 60, 5-[(3,4-dimethoxyphenyl)methylene]-2-thioxo-4-thiazolidinone]
[1]; [3]
  response vs control in vivo at 25 mg/kg: 87 ± 7%
  response vs control in vivo at 50 mg/kg: 85 ± 4%
[1]; [4]
  response vs control in vivo at 25 mg/kg: 89 ± 6%
  response vs control in vivo at 50 mg/kg: 78 ± 3%
[2]
  inhibition at 4.15 µg/mL (stock): 45.5%
  inhibition at 8.3 µg/mL (stock): 38%
